Measured values as given in patent US20240327538A1.
No constants are given. Whether binding was seen depends on the method and setting. A result given as binding can be weak or reduced; the word gives no strength.

Experiments:
[1] = molecular target: CD3 complex expressed in HEK293T cells (membrane protein screen); test: immunofluorescence FACS on HEK293T cells expressing membrane proteins
[2] = molecular target: CD3 epsilon expressed in HEK293T cells (membrane protein screen) (Homo sapiens (Human)); test: as above

binding [1]: binds
binding [2]: binds
B1: AMX-500-P7 (bispecific antibody)
chain: ASSATPESGPGTSTEPSEGSAPGTSESATPESGPGSGPGTSESATPGTSESATPESGPGSEPATSGSETPGTSESATPESGPGTSTEPSEGSAPGSPAGSPTSTEEGTSESATPESGPGSEPATSGSETPGTSESATPESGPGSPAGSPTSTEEGSPAGSPTSTEEGTSTEPSEGSAPGTSESATPESGPGTSESATPESGPGTSESATPESGPGSEPATSGSETPGSEPATSGSETPGSPAGSPTSTEEGTSTEPSEGSAPGTSTEPSEGSAPGSEPATSGSETPGTSESATPEAGRSASHTPAGLTGPGTSESATPESQVQLVESGGGVVQPGRSLRLSCAASGRTFGIYVWGWVRQAPGKEREFVGAISWSGSNRKVSDSVKGRFTISRDNSKNTLYLQMNSLRAEDTAVYYCAASNKLYGRTWYDFNESDYWGQGTQVTVSSGGGGSGGGSELVVTQEPSLTVSPGGTVTLTCRSSNGAVTSSNYANWVQQKPGQAPRGLIGGTNKRAPGTPARFSGSLLGGKAALTLSGVQPEDEAVYYCALWYPNLWVFGGGTKLTVLSESATPESGPGTSPGATPESGPGTSESATPEVQLVESGGGIVQPGGSLRLSCAASGFTFSTYAMNWVRQAPGKGLEWVGRIRTKRNNYATYYADSVKGRFTISRDDSKNTVYLQMNSLKTEDTAVYYCVRHENFGNSYVSWFAHWGQGTLVTVSSGTATPESGPGEAGRSASHTPAGLTGPATPESGPGTSESATPESGPGSPAGSPTSTEEGTSESATPESGPGSEPATSGSETPGTSESATPESGPGTSTEPSEGSAPGTSTEPSEGSAPGTSTEPSEGSAPGTSTEPSEGSAPGTSTEPSEGSAPGTSTEPSEGSAPGSPAGSPTSTEEGTSTEPSEGSAPGTSESATPESGPGSEPATSGSETPGTSESATPESGPGSEPATSGSETPGTSESATPESGPGTSTEPSEGSAPGTSESATPESGPGSPAGSPTSTEEGSPAGSPTSTEEGSPAGSPTSTEEGTSESATPESGPGTSTEPSEGSAPGTSESATPESGPGSEPATSGSETPGTSESATPESGPGSEPATSGSETPGTSESATPESGPGTSTEPSEGSAPGSPAGSPTSTEEGTSESATPESGPGSEPATSGSETPGTSESATPESGPGSPAGSPTSTEEGSPAGSPTSTEEGTSTEPSEGSAPGTSESATPESGPGTSESATPESGPGTSPSATPESGPGSEPATSGSETPGSEPATSGSETPGSPAGSPTSTEEGTSTEPSEGSAPGTSTEPSEGSAPGSEPATSGSETPGTSESAGEPEA
